Reference: patent US20230248665A1, “COMPOSITION COMPRISING DIMETHYLCHALCONE DERIVATIVE FOR PREVENTION OR TREATMENT OF METABOLIC DISEASE” (SEOUL NATIONAL UNIVERSITY R & DB FOUNDATION, priority 2020, published 2023)
Some entries share one result that the patent states for a list of compounds.

Target: T1, PPARγ (Homo sapiens, UniProt P37231)
T1 construct: expressed in transfected cells; host or cells: Cos7 cells
T1 sequence (P37231 1-505): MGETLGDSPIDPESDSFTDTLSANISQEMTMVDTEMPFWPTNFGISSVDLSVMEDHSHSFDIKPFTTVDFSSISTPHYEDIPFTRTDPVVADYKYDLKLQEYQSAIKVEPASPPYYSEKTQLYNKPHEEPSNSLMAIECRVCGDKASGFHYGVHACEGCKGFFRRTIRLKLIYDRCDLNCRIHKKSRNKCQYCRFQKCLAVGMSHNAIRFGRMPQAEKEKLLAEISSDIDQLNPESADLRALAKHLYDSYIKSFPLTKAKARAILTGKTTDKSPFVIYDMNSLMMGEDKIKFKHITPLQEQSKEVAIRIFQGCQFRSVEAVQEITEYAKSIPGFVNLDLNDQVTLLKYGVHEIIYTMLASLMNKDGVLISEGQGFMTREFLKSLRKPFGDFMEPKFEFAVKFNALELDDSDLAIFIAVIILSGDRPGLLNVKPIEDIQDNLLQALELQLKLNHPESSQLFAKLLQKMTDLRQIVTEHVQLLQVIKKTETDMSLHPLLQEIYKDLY
Assay: PPARγ activity, pPPRE-tk-luc luciferase reporter in transfected Cos7 cells
Assay type: cell-based
Conditions: 10 µM, 24 hours, FIG. 1

| SMILES | increase of the activity of PPARγ (luciferase activity) |
| --- | --- |
| COc1c(C)c(O)c(C)c(O)c1C(=O)/C=C/c1ccc(F)cc1 [Chemical Formula 2, 1-(2′,4′-dihydroxy-6′-methoxy-3′,5′-dimethylphenyl)-3-(4-fluorophenyl)-2-propen-l-one] | ≥ 2 fold |
| COc1c(C)c(O)c(C)c(O)c1C(=O)/C=C/c1ccc(N(C)C)cc1 [Chemical Formula 7, 1-(2,4′-dihydroxy-6′-methoxy-3′,5′-dimethylphenyl)-3-(4-(N,N-dimethylamino)phenyl)-2-propen-1-one] | ≥ 2 fold |
| COCOc1c(C)c(O)c(C(=O)/C=C/c2ccc(C(F)(F)F)cc2)c(OC)c1C [Chemical Formula 14, 1-(2′-hydroxy-4′-(methoxymethoxy)-6′-methoxy-3′,5′-dimethylphenyl)-3-(4-(trifluoromethyl)phenyl)-2-propen-1-one] | ≥ 2 fold |
| COc1ccc(OC)c(/C=C/C(=O)c2c(O)c(C)c(O)c(C)c2OC)c1 [Chemical Formula 10, 1-(2′,4′-dihydroxy-6′-methoxy-3′,5′-dimethylphenyl)-3-(2,5-dimethoxyphenyl)-2-propen-1-one] | ≥ 2 fold |
| COCOc1c(C)c(O)c(C(=O)/C=C/c2ccc(F)cc2)c(OC)c1C [Chemical Formula 24, 1-(2′-hydroxy-4′-(methoxymethoxy)-6′-methoxy-3′,5′-dimethylphenyl)-3-(4-fluorophenyl)-2-propen-1-one] | ≥ 2 fold |
| COCOc1c(C)c(O)c(C(=O)/C=C/c2ccccc2F)c(OC)c1C [Chemical Formula 34, 1-(2′-hydroxy-4′-(methoxymethoxy)-6′-methoxy-3′,5′-dimethylphenyl)-3-(2-fluorophenyl)-2-propen-1-one] | ≥ 2 fold |
| COc1c(C)c(O)c(C)c(O)c1C(=O)/C=C/c1ccccc1Cl [Chemical Formula 37, 1-(2′,4′-dihydroxy-6′-methoxy-3′,5′-dimethylphenyl)-3-(2-chlorophenyl)-2-propen-1-one] | ≥ 2 fold |
| COCOc1c(C)c(O)c(C(=O)/C=C/c2cccc(F)c2)c(OC)c1C [Chemical Formula 35, 1-(2′-hydroxy-4′-(methoxymethoxy)-6′-methoxy-3′,5′-dimethylphenyl)-3-(3-fluorophenyl)-2-propen-1-one] | ≥ 2 fold |
| COc1c(C)c(O)c(C)c(O)c1C(=O)/C=C/c1ccc(C)cc1 [Chemical Formula 3, 1-(2′,4′-dihydroxy-6′-methoxy-3′,5′-dimethylphenyl)-3-(4-tolyl)-2-propen-1-one] | ≥ 2 fold |
| COCOc1c(C)c(O)c(C(=O)/C=C/c2ccccc2)c(OC)c1C [Chemical Formula 25, 1-(2′-hydroxy-4′-(methoxymethoxy)-6′-methoxy-3′,5′-dimethylphenyl)-3-phenyl-2-propen-1-one] | ≥ 2 fold |
| COc1c(C)c(O)c(C)c(O)c1C(=O)/C=C/c1ccccc1F [Chemical Formula 31, 1-(2′,4′-dihydroxy-6′-methoxy-3′,5′-dimethylphenyl)-3-(2-fluorophenyl)-2-propen-1-one] | ≥ 2 fold |
| COc1c(C)c(O)c(C)c(O)c1C(=O)/C=C/c1ccc(Cl)cc1 [Chemical Formula 8, 1-(2′,4′-dihydroxy-6′-methoxy-3′,5′-dimethylphenyl)-3-(4-chlorophenyl)-2-propen-1-one] | ≥ 2 fold |
| CCOc1ccc(/C=C/C(=O)c2c(O)c(C)c(O)c(C)c2OC)cc1F [Chemical Formula 33, 1-(2′,4′-dihydroxy-6′-methoxy-3′,5′-dimethylphenyl)-3-(4-ethoxy-3-fluorophenyl)-2-propen-1-one] | ≥ 2 fold |
